Percent effect of library compounds

Mtb cholesterol medium: 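Phenotypic screen: M. tuberculosis growth, cholesterol and DPPC medium, 4 days; the read-out is not stated. Concentration: 50 µM. Higher reads as more growth inhibition (inferred: compounds with an IC50 in retests scored well above the rest). About 69,000 compounds were tested under these conditions; 0.54% (about 370) showed 50% or more at least once.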
Mtb glucose medium: 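Whole-cell growth test on Mycobacterium tuberculosis, read after 3 days in glucose-containing 7H9 medium; the read-out is not stated. Compounds at 50 µM. The record gives no direction; compounds that gave an IC50 in retests scored well above the rest, so higher reads as more growth inhibition. Of about 69,000 compounds tested this way, about 760 (1.1%) reached 50% or more in at least one test.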

The filed quantity is “Percent Effect” (%).
How 0% and 100% were set is not recorded. Most values in the screen are low, and negative values occur.
This is an unselected part of the compounds tested.
Two or more numbers in one place are separate tests of the same structure; such repeats can differ widely.
A dash means the value is not listed here; it may have been measured.

| # | compound | Mtb cholesterol medium | Mtb glucose medium |
|---|---|---|---|
| 1 | `COCCO[C@H]1CCN(C(=O)c2ccc[nH]2)[C@H]1Cc1ccncc1` | 5.155 | 24.1 |
| 2 | `Cc1nn(CCC(=O)N(C)Cc2c(Cl)cnn2C)cc1Br` | -13.5 | -5.303 & -7.904 |
| 3 | `CNC(=O)CN(C)S(=O)(=O)c1c(Br)cc2[nH]c(=O)oc2c1Cl` | -11 | -36.76 |
| 4 | `CCSCc1ccnc(NC(=O)C2CCOC2)c1` (centres unmarked) | -2.401 & -4.527 | 10.67 |
| 5 | `O=C(c1ccc2[nH]ccc2c1)N1CCn2cnc(COCC3CC3)c2C1` | 0.873 | 21.79 |
| 6 | `CC(C)OCC(=O)Nc1ccc(Oc2ccc3c(c2)OCO3)nc1` | 2.197 | 1.11 |
| 7 | `O=C(O)C(F)(F)F.[H][C@]12CN(Cc3ccoc3)C[C@@]1([H])OCCN(c1ncccn1)C2` | -4.221 | -9.952 |
| 8 | `CSCC(C)(O)CNC(=O)c1ccc(F)cc1Cl` (centres unmarked) | -18.67 | -2.162 |
| 9 | `COCC(=O)NC[C@H]1CC[C@H](c2nnc(-c3ccncc3)o2)CC1` | 4.516 | -7.716 |
| 10 | `CCS(=O)(=O)N1CCCC(c2ccnc(N(C)C)c2)C1` (centres unmarked) | 1.209 | -11.62 |
| 11 | `CSCCC(O)C(=O)N1CCN(Cc2cccc(Cl)c2)CC1` (centres unmarked) | 22.93 | 26.1 |
| 12 | `CC(CNC(=O)c1ccc(Cl)cc1I)N1CCCC1` (centres unmarked) | -6.134 | -6.992 |
| 13 | `CCCS(=O)(=O)N1Cc2nccn2CC(Cn2cncn2)C1` (centres unmarked) | -7.002 | -12.4 |
| 14 | `Cl.Nc1cnn(CC(=O)N2CCCCC2)c1` | -18.15 | -2.714 |
| 15 | `CC(NC(=O)c1cc(=O)n(C)c(=O)n1C)c1ccccc1-n1cccn1` (centres unmarked) | 12.09 | 13.2 |
| 16 | `CN(C)[C@@H]1CCN(S(=O)(=O)c2cn(C)cn2)[C@H]1Cc1cccnc1.O=C(O)C(F)(F)F.O=C(O)C(F)(F)F.O=C(O)C(F)(F)F` | 12.11 | 23.49 & -0.9995 |
| 17 | `[H][C@@]12COC[C@]1(c1nnc(C)o1)CN(C(=O)c1cc(C)no1)C2` | -2.965 | -1.297 & 6.793 |
| 18 | `[H][C@@]12CN(Cc3nccs3)C[C@@H](C(=O)NC(C)C)[C@]1([H])CCO2` | -14.04 & -77.87 | -65.9 |
| 19 | `CC1CN(C)CCN1C(=O)c1cccn1Cc1ccncc1` (centres unmarked) | 17.42 | 21.66 & -4.516 |
| 20 | `[H][C@@]12CS(=O)(=O)C[C@]1([H])N(Cc1cc(C)cc(C)c1)CCN2C(=O)C1CCC1` | -2.918 | -2.84 & 6.21 |
| 21 | `COc1ccc([C@@H]2CN(Cc3cccnc3N)C[C@H]2NC(C)=O)cc1` | -22.15 | -0.5751 & -0.4438 |
| 22 | `[H][C@]12CN(Cc3ccc(F)cc3)C[C@@]1([H])S(=O)(=O)CC[C@@H]2C(=O)N1CCCC1` | -8.181 | -8.283 & -15.78 |
| 23 | `Cc1cc2ccccc2n1CC(=O)N[C@@H](C)C(=O)O` | -2.331 | 0.01235 & -2.254 |
| 24 | `CC(=O)N1CCCN(C(=O)NCCc2cc(Cl)cc(Cl)c2)CC1` | -4.161 | 0.5708 |
| 25 | `COc1cccc2c(=O)n(Cc3cc(C4CC4)[nH]n3)cnc12` | -1.959 | -0.3361 & -9.928 |
| 26 | `CC(NC(=O)CN1C=Nc2ccccc2S1(=O)=O)c1ccccc1` (centres unmarked) | -8.894 | -3.144 |
| 27 | `O=C1CCC(=O)N1CCn1nnc(-c2cccc(Cl)c2)n1` | -33.77 | -35.3 |
| 28 | `CSc1ccc(C(=O)C2CCCN(C(=O)CCCn3cncn3)C2)cc1` (centres unmarked) | 7.952 | 22.73 |
| 29 | `Cc1ccc(C(C)NCCc2nccn2Cc2ccccc2)o1` (centres unmarked) | -7.194 | -33.4 & 6.33 |
| 30 | `Cn1cnc(S(=O)(=O)N2CCCc3cccc(F)c32)c1Cl` | -9.349 & 1.35 | -2.852 |
| 31 | `COc1ccccc1COCC(O)CN(C)c1ccc(C)cc1C` (centres unmarked) | 11.44 | -2.976 & 15.16 |
| 32 | `Cc1cccc(N2CC3(CCN(S(=O)(=O)c4cccs4)C3)CC2=O)c1` (centres unmarked) | -3.14 | 4.077 |
| 33 | `Cc1ncc(Cl)c(C(=O)N2CC(=O)N(C)c3ccccc32)n1` | -1.048 | -24.88 |
| 34 | `COCC(=O)NCc1ccc(-c2ncncc2C(=O)N(C)C)cc1` | -6.903 & -7.369 | 3.261 |
| 35 | `COCc1ncc(CN(CCN(C)C)Cc2ccc(C)s2)cn1` | -5.683 | 6.388 |
| 36 | `Cc1nn(C)c(C)c1-c1cc(-c2cnn(C)c2C2CC2)c(C#N)c(N)n1` | -6.69 | 8.028 |
| 37 | `Cc1cccc(CN2CCCC(O)(CNCCc3c[nH]cn3)C2=O)c1` (centres unmarked) | - | -26.71 |
| 38 | `Cc1ccc(CN2CCOC3(CCN(C(=O)N4CCCC4)CC3)C2)cc1.O=C(O)C(F)(F)F` | 7.82 | 9.693 & -13.46 |
| 39 | `CCn1cc(NC(=O)NC(CO)Cc2c[nH]c3ccccc23)cn1` (centres unmarked) | 11.12 | 6.668 |
| 40 | `CCc1nnsc1C(=O)NCC1CN(CC(C)C)CCO1` (centres unmarked) | 0.9439 | 1.342 & -2.728 |
| 41 | `CC(Oc1cccc(F)c1)C(=O)N(CC(N)=O)C1CCCC1` (centres unmarked) | 17.1 & -11.72 | 7.357 |
| 42 | `COCCN1CCC2(COCc3c(C)nc(N4CCOCC4)nc32)C1.O=C(O)C(F)(F)F` (centres unmarked) | -1.515 & -0.9743 | 17 & -4.249 |
| 43 | `Cc1ncsc1CCN(C)C(=O)CN1C(=O)OC[C@@H]1c1ccccc1` | 12.66 | 8.053 & -3.217 |
| 44 | `COCCN1C[C@@H](C)[C@@]2(COCCN(C(=O)c3ccccn3)C2)C1.O=C(O)C(F)(F)F.O=C(O)C(F)(F)F` | 0.03213 | -1.434 & -4.493 |
| 45 | `CC(=O)Nc1c(C)noc1/C=C\c1ccc(S(=O)(=O)NC2CC2)cc1` | 13.01 | 25.49 |
| 46 | `C[C@H](NC(=O)C1CC1)c1nc2cc(-c3ccc(F)cc3)ncn2n1` | 0.1289 | 8.283 |
| 47 | `CCc1nc(C2CCCN2Cc2noc(Cc3ccccc3)n2)no1` (centres unmarked) | 0.4786 | -14.96 |
| 48 | `Cc1nnc(NC(=O)N2CCCN(C3CCCC3)CC2)s1` | -0.6897 | -35.79 & -0.9397 |
| 49 | `CC(C)(C)c1cc(NC(=O)C2COCCO2)n(-c2ccccn2)n1` (centres unmarked) | -14.21 | 7.672 |
| 50 | `Cc1cc(C)c(CNC(=O)c2ccc3c(c2)CCC3)c(=O)[nH]1` | -8.202 | -57.8 & 0.84 |
| 51 | `CNc1nc(C2CCCN2)nc2c1CCN(S(=O)(=O)C1CCCCC1)C2.Cl` (centres unmarked) | -0.8561 | -14.97 |
| 52 | `Cc1nc(NC2CCOCC2)cc(C2CCN2S(C)(=O)=O)n1` (centres unmarked) | 0.4225 & 2.188 | 6.678 |
| 53 | `COc1ccc(-c2c(C)nn3c(=N)c(C#N)n[nH]c23)cc1` | 27.7 | - |
| 54 | `CC(C)N1CCC(NC(=O)NCc2ccccc2)CC1` | -23.71 | 0.09771 & -14.44 |
| 55 | `CC(C)SCC(=O)N1CCc2c(nc(N(C)C)nc2N(C)C)C1` | 3.441 | 18.84 |
| 56 | `Cc1nc(CN(C)C(=O)Nc2cccc(C)c2C)no1` | -7.986 | 19.58 |
| 57 | `CSc1ccccc1NC(=O)C1CSc2ncc(C)c(=O)n2C1` (centres unmarked) | -18.39 | -6.721 |
| 58 | `OCCN(Cc1cccnc1)c1ccc(Br)cn1` | 2.244 | 9.227 & 3.589 |
| 59 | `CCC(=O)N1CCC2(COCc3cnc(NCc4ccco4)nc32)C1` (centres unmarked) | 0.8641 | -9.94 |
| 60 | `COCC(=O)N1CCCC(C)(c2nncn2C)C1` (centres unmarked) | -5.861 & -4.182 | -14.46 |
| 61 | `COc1ccc(NC(=O)N(CCO)Cc2ccsc2)cc1` | -9.441 | 1.273 |
| 62 | `CCNC(=O)c1ccoc1CN1c2ccccc2CC1C` (centres unmarked) | -10.37 | 8.365 |
| 63 | `N[C@@H]1CC[C@H](C(=O)NCCc2nc(-c3ccccc3)cs2)C1` | 6.711 & -3.149 | 1.294 |
| 64 | `CS(=O)(=O)NCc1cncc2c1CCN(C(=O)N1CCCC1)C2.Cl` | -4.221 | -37.91 |
| 65 | `CC(C)Nc1ccc2nc(C3CCN(C(C)C)CC3)nn2c1.O=C(O)C(F)(F)F` | -2.254 & -0.1399 | 16.07 |
| 66 | `Cc1cnn(C2CCCN(C(=O)c3cc(-c4ccccc4C)n[nH]3)C2)c1` (centres unmarked) | 1.946 | 25.08 & 23.48 |
| 67 | `Cc1nnc2n1CCN(C(=O)COCCOc1ccccc1)C2` | 0.5243 | 7.08 |
| 68 | `c1cnn(CC2CCCN2Cc2noc(C3CC3)n2)c1` (centres unmarked) | -9.599 | -16.07 |
| 69 | `Cc1cnn(CC2CN(Cc3ccc(C(N)=O)cc3)CCO2)c1` (centres unmarked) | 5.452 | 27.84 |
| 70 | `Cc1ccc(-n2nnc(C(=O)O)c2C)c(C)c1` | 12.19 | -15.14 |
| 71 | `Cc1ccc(CN(Cc2c[nH]cn2)C2CC(C)(C)NC(C)(C)C2)o1.O=C(O)CC(O)(CC(=O)O)C(=O)O` | -1.364 | -6.458 |
| 72 | `O=C(NCC(O)c1ccc(F)cc1F)c1cccc(F)c1` (centres unmarked) | -26.36 | -4.949 |
| 73 | `CCc1nccc(CN2CCCC(CNC(=O)c3ccccn3)C2)n1` (centres unmarked) | -14.03 & -10.91 | 2.275 |
| 74 | `COc1ccccc1CN1CCC2(CC1)CC(Oc1ccccn1)CO2` (centres unmarked) | 6.803 | 5.037 |
| 75 | `O=C(O)C(F)(F)F.O=C(O)C(F)(F)F.[H][C@@]12CN(CCOC)CC[C@]1([H])CN(Cc1nccn1C)C2` | -10.21 | -15 |
| 76 | `Cc1ccc(CN2CCc3nnc(CN4CCCC4=O)n3CC2)o1.O=C(O)C(F)(F)F` | -26.97 | 2.733 |
| 77 | `CN(C)CCn1ccnc1C1CCN(C(=O)CCc2cccnc2)CC1` | 22.72 | -11.04 |
| 78 | `CCOc1c(Br)cc(C2C3=C(COC3=O)Nc3[nH]nc(C)c32)cc1OC` (centres unmarked) | 14.66 & 12.37 | -3.235 |
| 79 | `Cc1occc1CNC(=O)N1CCC(Cc2cnn(C)c2)C1` (centres unmarked) | -2.193 | -20.61 |
| 80 | `CC(C)Cn1nnnc1SC(C(=O)NCc1cccnc1)C(C)C` (centres unmarked) | -12.06 | 13.08 |
| 81 | `[H][C@@]12CCN(CC3CCOCC3)[C@@]1([H])CCN2C(=O)c1ccc(C)nc1` | -8.171 & -10.98 | -25.76 |
| 82 | `Cc1ccc(N2CCCC(N(C)Cc3nc(C)c(C)o3)C2)nn1` (centres unmarked) | 10.42 | -7.098 |
| 83 | `OCCOc1ccc(NCc2cccc3cn[nH]c23)cn1` | 21.01 | 17.37 |

10 of the entries, repeated:

{"compound": "OCCN(Cc1cccnc1)c1ccc(Br)cn1", "Mtb cholesterol medium": 2.244, "Mtb glucose medium": "9.227 & 3.589"}
{"compound": "Cc1nn(C)c(C)c1-c1cc(-c2cnn(C)c2C2CC2)c(C#N)c(N)n1", "Mtb cholesterol medium": -6.69, "Mtb glucose medium": 8.028}
{"compound": "OCCOc1ccc(NCc2cccc3cn[nH]c23)cn1", "Mtb cholesterol medium": 21.01, "Mtb glucose medium": 17.37}
{"compound": "CSCC(C)(O)CNC(=O)c1ccc(F)cc1Cl", "stereo": "centres unmarked", "Mtb cholesterol medium": -18.67, "Mtb glucose medium": -2.162}
{"compound": "COCC(=O)NCc1ccc(-c2ncncc2C(=O)N(C)C)cc1", "Mtb cholesterol medium": "-6.903 & -7.369", "Mtb glucose medium": 3.261}
{"compound": "O=C(c1ccc2[nH]ccc2c1)N1CCn2cnc(COCC3CC3)c2C1", "Mtb cholesterol medium": 0.873, "Mtb glucose medium": 21.79}
{"compound": "Cc1nnc2n1CCN(C(=O)COCCOc1ccccc1)C2", "Mtb cholesterol medium": 0.5243, "Mtb glucose medium": 7.08}
{"compound": "CCOc1c(Br)cc(C2C3=C(COC3=O)Nc3[nH]nc(C)c32)cc1OC", "stereo": "centres unmarked", "Mtb cholesterol medium": "14.66 & 12.37", "Mtb glucose medium": -3.235}
{"compound": "CC(C)OCC(=O)Nc1ccc(Oc2ccc3c(c2)OCO3)nc1", "Mtb cholesterol medium": 2.197, "Mtb glucose medium": 1.11}
{"compound": "Cc1cccc(CN2CCCC(O)(CNCCc3c[nH]cn3)C2=O)c1", "stereo": "centres unmarked", "Mtb glucose medium": -26.71}

Source: ChEMBL document CHEMBL3988442, “University of Dundee, Small-Polar-MMV Screening Library” (2021).